Laboratory results: PubChem BioAssay AID1224828 (NIAID, 2016)
Shown is a random part of about 17,000 reagents tested. 762 of them (4.5%) count as active. 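Active calls include both raised and lowered p65 entry, mostly lowered; wells with fewer than 50 cells lack a z-score.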 Raw values vary from plate to plate and are shown uncorrected.

- Assay: 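Find genes required for NF-kappaB p65 moving into the nucleus after LPS in mouse macrophages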 (primary screen)
- System: mouse RAW264.7 G9 macrophage reporter cells (GFP-p65, Tnf promoter-mCherry)
- Knock-down reagent: siRNA pool against mouse genes, 100 nM
- Time to read-out: 2 days siRNA transfection, then 40 min LPS before fixation
- Treatment: LPS (Salmonella minnesota R595) at 10 ng/ml
- Measured: 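Microscopy ratio of nuclear to perinuclear-ring GFP-p65 signal, scaled to the plate median; gene score is the average of two replicate robust z-scores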
- Direction: p65 translocation robust z-score: higher = more nuclear NF-kappaB p65 after LPS than the plate median; nuclear/cytoplasmic p65 ratio: higher = more nuclear NF-kappaB p65
- Rule for the call: 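Active if robust z is above 3.3 (negative regulators) or below -1.56, the Tlr4 control median (positive regulators); activity score 50 or more; control wells not called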
- Meaning of the calls: active = hit (p65 shift raised or lowered); inactive = no clear change

{"target": "Tprkb", "p65 translocation robust z-score": 0.78, "nuclear/cytoplasmic p65 ratio, rep 1": 1.54, "nuclear/cytoplasmic p65 ratio, rep 2": 1.4, "low cell count flag": "enough cells to score", "outcome": "inactive"}
{"target": "Styxl1", "p65 translocation robust z-score": -0.68, "nuclear/cytoplasmic p65 ratio, rep 1": 1.48, "nuclear/cytoplasmic p65 ratio, rep 2": 1.54, "low cell count flag": "enough cells to score", "outcome": "inactive"}
{"target": "Sox7", "p65 translocation robust z-score": -0.25, "nuclear/cytoplasmic p65 ratio, rep 1": 1.39, "nuclear/cytoplasmic p65 ratio, rep 2": 1.2, "low cell count flag": "enough cells to score", "outcome": "inactive"}
{"target": "Arl3", "p65 translocation robust z-score": 0.01, "nuclear/cytoplasmic p65 ratio, rep 1": 1.56, "nuclear/cytoplasmic p65 ratio, rep 2": 1.53, "low cell count flag": "enough cells to score", "outcome": "inactive"}
{"target": "Rev1", "p65 translocation robust z-score": 0.24, "nuclear/cytoplasmic p65 ratio, rep 1": 1.58, "nuclear/cytoplasmic p65 ratio, rep 2": 1.52, "low cell count flag": "enough cells to score", "outcome": "inactive"}
{"target": "Kalrn", "nuclear/cytoplasmic p65 ratio, rep 1": 1.16, "nuclear/cytoplasmic p65 ratio, rep 2": 1.07, "low cell count flag": "fewer than 50 cells per well; well left out of scoring", "outcome": "inactive"}
{"target": "Dtymk", "p65 translocation robust z-score": 0.1, "nuclear/cytoplasmic p65 ratio, rep 1": 1.65, "nuclear/cytoplasmic p65 ratio, rep 2": 1.44, "low cell count flag": "enough cells to score", "outcome": "inactive"}
{"target": "4833439L19Rik", "nuclear/cytoplasmic p65 ratio, rep 1": 1.42, "nuclear/cytoplasmic p65 ratio, rep 2": 1.4, "low cell count flag": "fewer than 50 cells per well; well left out of scoring", "outcome": "inactive"}
{"target": "Cnpy2", "p65 translocation robust z-score": 0.4, "nuclear/cytoplasmic p65 ratio, rep 1": 1.61, "nuclear/cytoplasmic p65 ratio, rep 2": 1.54, "low cell count flag": "enough cells to score", "outcome": "inactive"}
{"target": "Trpm3", "p65 translocation robust z-score": 0.92, "nuclear/cytoplasmic p65 ratio, rep 1": 1.58, "nuclear/cytoplasmic p65 ratio, rep 2": 1.27, "low cell count flag": "enough cells to score", "outcome": "inactive"}
{"target": "Abra", "p65 translocation robust z-score": 0.18, "nuclear/cytoplasmic p65 ratio, rep 1": 1.67, "nuclear/cytoplasmic p65 ratio, rep 2": 1.61, "low cell count flag": "enough cells to score", "outcome": "inactive"}
{"target": "Ambn", "p65 translocation robust z-score": -0.02, "nuclear/cytoplasmic p65 ratio, rep 1": 1.65, "nuclear/cytoplasmic p65 ratio, rep 2": 1.63, "low cell count flag": "enough cells to score", "outcome": "inactive"}
{"target": "Pwwp3b", "p65 translocation robust z-score": 0.61, "nuclear/cytoplasmic p65 ratio, rep 1": 1.34, "nuclear/cytoplasmic p65 ratio, rep 2": 1.63, "low cell count flag": "enough cells to score", "outcome": "inactive"}
{"target": "Sfxn2", "nuclear/cytoplasmic p65 ratio, rep 1": 1.29, "nuclear/cytoplasmic p65 ratio, rep 2": 1.14, "low cell count flag": "fewer than 50 cells per well; well left out of scoring", "outcome": "inactive"}
{"target": "Vmn1r54", "nuclear/cytoplasmic p65 ratio, rep 1": 0, "nuclear/cytoplasmic p65 ratio, rep 2": 1.28, "low cell count flag": "fewer than 50 cells per well; well left out of scoring", "outcome": "inactive"}
{"target": "Ccndbp1", "p65 translocation robust z-score": -0.79, "nuclear/cytoplasmic p65 ratio, rep 1": 1.35, "nuclear/cytoplasmic p65 ratio, rep 2": 1.29, "low cell count flag": "enough cells to score", "outcome": "inactive"}
{"target": "Sgk2", "p65 translocation robust z-score": -0.56, "nuclear/cytoplasmic p65 ratio, rep 1": 1.3, "nuclear/cytoplasmic p65 ratio, rep 2": 1.31, "low cell count flag": "enough cells to score", "outcome": "inactive"}
{"target": "Ccn1", "p65 translocation robust z-score": -0.4, "nuclear/cytoplasmic p65 ratio, rep 1": 1.4, "nuclear/cytoplasmic p65 ratio, rep 2": 1.35, "low cell count flag": "enough cells to score", "outcome": "inactive"}
{"target": "Crisp2", "p65 translocation robust z-score": -0.31, "nuclear/cytoplasmic p65 ratio, rep 1": 1.36, "nuclear/cytoplasmic p65 ratio, rep 2": 1.92, "low cell count flag": "enough cells to score", "outcome": "inactive"}
{"target": "Cnot6l", "p65 translocation robust z-score": -0.61, "nuclear/cytoplasmic p65 ratio, rep 1": 1.5, "nuclear/cytoplasmic p65 ratio, rep 2": 1.55, "low cell count flag": "enough cells to score", "outcome": "inactive"}
{"target": "Npvf", "p65 translocation robust z-score": 0.82, "nuclear/cytoplasmic p65 ratio, rep 1": 1.6, "nuclear/cytoplasmic p65 ratio, rep 2": 1.74, "low cell count flag": "enough cells to score", "outcome": "inactive"}

Quoted from above, 2 entries:
{"target": "Abra", "p65 translocation robust z-score": 0.18, "nuclear/cytoplasmic p65 ratio, rep 1": 1.67, "nuclear/cytoplasmic p65 ratio, rep 2": 1.61, "low cell count flag": "enough cells to score", "outcome": "inactive"}
{"target": "Ambn", "p65 translocation robust z-score": -0.02, "nuclear/cytoplasmic p65 ratio, rep 1": 1.65, "nuclear/cytoplasmic p65 ratio, rep 2": 1.63, "low cell count flag": "enough cells to score", "outcome": "inactive"}
